Test results taken from paper PMC7498585.
Results are given in words; binding and its absence hold for the method and conditions named. Binding seen in cells or lysates may run through a third protein. Tags and fused reporters may be left off the sequences shown.

Molecular target: T1, DRAM1-FLAG (human) (UniProt Q8N682)
T1 sequence: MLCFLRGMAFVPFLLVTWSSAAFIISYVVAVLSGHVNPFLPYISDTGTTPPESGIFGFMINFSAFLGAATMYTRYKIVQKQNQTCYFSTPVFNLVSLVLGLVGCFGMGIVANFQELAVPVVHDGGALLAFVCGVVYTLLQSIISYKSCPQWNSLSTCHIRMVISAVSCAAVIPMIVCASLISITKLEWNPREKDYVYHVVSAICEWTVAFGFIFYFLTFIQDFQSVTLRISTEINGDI
Test: co-IP; RIPA lysates of DRAM1-overexpressing H1975 and A549 cells; anti-FLAG agarose beads, 4 °C overnight; Western blot for ATP6V1D and ATP6V0D

In the case of “V-ATP6V0D (human (endogenous in H1975 and A549))”, the binding is reported as “no binding”.
